Source: paper PMC8467208
These are yes or no findings as the source states them, for the method shown. In cells and extracts the contact can be indirect. These calls come from enrichment with a bait or labelling near it, and not all partners need be listed. Sequences can lack the tags named with a protein.

By UniProt entry, the sequences of proteins in these tests, tags left out.
UniProt P05213: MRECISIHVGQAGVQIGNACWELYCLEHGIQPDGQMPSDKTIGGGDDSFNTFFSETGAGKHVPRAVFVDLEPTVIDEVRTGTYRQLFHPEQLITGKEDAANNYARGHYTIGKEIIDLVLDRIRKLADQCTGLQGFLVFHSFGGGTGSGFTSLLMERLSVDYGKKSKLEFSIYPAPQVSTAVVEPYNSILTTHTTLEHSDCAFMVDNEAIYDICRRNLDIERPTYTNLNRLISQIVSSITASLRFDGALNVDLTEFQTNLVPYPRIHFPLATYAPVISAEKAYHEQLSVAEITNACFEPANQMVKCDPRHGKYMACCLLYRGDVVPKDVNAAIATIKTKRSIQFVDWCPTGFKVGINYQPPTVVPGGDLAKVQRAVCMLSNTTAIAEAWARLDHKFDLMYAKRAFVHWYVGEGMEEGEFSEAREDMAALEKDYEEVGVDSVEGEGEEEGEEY
UniProt P48722: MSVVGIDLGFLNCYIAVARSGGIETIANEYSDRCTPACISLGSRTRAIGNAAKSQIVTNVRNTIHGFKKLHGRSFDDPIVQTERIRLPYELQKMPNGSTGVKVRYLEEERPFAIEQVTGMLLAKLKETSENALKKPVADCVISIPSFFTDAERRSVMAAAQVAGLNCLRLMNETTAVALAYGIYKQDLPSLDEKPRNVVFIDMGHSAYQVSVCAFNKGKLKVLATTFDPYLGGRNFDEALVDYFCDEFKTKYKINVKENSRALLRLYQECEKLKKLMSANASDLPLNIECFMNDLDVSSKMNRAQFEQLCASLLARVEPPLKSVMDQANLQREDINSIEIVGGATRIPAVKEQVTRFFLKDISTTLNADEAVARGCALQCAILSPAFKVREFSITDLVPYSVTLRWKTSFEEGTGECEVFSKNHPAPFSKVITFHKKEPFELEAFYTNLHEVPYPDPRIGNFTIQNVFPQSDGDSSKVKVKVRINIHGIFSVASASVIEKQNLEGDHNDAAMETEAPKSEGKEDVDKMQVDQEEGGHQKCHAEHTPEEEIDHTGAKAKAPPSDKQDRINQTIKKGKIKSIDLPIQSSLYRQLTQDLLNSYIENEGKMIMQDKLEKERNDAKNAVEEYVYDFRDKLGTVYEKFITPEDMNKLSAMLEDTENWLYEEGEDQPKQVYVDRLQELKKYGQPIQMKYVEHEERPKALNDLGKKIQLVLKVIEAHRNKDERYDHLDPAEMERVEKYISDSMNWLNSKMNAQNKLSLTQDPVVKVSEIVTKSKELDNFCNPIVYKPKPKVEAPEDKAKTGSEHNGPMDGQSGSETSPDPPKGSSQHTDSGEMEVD
UniProt Q6PGF7: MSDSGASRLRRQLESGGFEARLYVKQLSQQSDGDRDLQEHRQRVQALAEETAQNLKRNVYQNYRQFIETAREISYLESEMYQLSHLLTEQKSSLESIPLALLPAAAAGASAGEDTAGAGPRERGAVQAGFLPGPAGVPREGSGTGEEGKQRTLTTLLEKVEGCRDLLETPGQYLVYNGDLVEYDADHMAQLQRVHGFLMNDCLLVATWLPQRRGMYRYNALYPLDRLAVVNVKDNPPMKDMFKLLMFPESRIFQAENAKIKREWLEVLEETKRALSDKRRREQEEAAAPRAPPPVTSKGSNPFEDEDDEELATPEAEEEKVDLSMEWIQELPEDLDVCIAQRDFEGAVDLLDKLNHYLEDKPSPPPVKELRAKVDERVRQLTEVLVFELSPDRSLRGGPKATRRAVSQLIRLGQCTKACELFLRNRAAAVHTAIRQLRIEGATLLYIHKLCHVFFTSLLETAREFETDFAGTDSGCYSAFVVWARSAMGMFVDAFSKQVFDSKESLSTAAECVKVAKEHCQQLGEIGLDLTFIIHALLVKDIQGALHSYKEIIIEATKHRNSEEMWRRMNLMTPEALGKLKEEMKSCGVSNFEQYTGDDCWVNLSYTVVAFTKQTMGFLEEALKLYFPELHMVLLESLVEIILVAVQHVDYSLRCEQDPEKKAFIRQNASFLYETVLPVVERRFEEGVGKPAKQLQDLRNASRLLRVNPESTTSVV
UniProt Q9QZ05: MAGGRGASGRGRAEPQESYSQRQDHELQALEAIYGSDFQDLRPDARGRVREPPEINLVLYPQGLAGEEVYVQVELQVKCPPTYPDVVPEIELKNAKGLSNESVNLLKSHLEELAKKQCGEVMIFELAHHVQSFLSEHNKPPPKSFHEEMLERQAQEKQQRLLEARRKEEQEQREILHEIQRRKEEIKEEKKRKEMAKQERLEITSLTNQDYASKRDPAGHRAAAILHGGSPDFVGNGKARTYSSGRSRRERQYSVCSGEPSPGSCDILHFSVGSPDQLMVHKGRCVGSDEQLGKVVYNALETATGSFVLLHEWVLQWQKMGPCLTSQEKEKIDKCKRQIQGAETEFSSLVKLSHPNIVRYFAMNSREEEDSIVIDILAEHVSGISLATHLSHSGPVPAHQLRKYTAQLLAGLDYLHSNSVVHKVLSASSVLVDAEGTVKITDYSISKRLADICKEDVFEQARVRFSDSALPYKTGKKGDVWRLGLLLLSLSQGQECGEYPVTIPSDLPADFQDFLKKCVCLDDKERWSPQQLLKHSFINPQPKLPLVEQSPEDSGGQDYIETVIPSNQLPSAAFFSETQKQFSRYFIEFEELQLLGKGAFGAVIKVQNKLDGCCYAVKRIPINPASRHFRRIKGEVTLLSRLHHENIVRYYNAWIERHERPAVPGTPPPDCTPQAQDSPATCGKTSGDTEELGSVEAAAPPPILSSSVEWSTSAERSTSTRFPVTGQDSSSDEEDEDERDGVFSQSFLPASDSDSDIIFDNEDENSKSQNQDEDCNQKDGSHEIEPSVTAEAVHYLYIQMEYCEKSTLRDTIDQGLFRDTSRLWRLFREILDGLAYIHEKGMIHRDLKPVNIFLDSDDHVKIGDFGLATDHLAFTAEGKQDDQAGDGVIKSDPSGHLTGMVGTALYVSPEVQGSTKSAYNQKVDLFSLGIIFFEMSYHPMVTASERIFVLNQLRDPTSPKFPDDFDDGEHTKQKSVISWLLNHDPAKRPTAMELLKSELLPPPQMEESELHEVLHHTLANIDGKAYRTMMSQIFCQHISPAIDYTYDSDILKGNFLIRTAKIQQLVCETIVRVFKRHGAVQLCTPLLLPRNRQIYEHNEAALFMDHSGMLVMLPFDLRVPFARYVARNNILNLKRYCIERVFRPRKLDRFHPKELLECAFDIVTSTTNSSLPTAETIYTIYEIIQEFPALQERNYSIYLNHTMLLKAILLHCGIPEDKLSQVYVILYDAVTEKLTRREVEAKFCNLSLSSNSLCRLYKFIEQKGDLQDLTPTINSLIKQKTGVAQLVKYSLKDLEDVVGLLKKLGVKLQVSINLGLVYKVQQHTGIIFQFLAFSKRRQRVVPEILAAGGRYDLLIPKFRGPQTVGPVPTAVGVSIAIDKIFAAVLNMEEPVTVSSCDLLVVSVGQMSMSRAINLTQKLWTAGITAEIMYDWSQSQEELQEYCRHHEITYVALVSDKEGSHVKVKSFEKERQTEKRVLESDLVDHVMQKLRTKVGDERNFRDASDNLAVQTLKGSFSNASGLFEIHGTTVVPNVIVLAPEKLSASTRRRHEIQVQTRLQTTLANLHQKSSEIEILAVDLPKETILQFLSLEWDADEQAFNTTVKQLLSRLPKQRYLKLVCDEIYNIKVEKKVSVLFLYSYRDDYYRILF

T1: HA-tagged SLC38A9 (mouse) (UniProt Q8BGD6)
T1 sequence: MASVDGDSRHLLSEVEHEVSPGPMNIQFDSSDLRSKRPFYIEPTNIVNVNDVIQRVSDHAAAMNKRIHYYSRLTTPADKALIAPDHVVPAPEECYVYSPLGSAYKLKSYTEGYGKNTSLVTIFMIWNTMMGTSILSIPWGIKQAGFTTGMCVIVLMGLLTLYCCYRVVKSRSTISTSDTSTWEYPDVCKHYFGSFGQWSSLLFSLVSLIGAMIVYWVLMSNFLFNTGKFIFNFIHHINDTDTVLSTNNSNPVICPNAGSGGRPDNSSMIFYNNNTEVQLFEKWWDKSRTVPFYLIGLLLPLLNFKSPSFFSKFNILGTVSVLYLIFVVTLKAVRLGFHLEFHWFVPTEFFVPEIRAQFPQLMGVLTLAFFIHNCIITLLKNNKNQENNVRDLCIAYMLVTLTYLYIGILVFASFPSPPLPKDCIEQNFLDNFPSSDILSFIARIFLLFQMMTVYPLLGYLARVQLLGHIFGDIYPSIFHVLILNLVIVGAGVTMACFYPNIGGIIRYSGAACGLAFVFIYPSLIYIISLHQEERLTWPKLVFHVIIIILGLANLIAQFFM

B1: PA2G4 (protein, UniProt P50580 1-394)
chain: MSGEDEQQEQTIAEDLVVTKYKMGGDIANRVLRSLVEASSSGVSVLSLCEKGDAMIMEETGKIFKKEKEMKKGIAFPTSISVNNCVCHFSPLKSDQDYILKEGDLVKIDLGVHVDGFIANVAHTFVIGVAQGTQVTGRKADVIKAAHLCAEAALRLVKPGNQNTQVTEAWNKVAHSFNCTPIEGMLSHQLKQHVIDGEKTIIQNPTDQQKKDHEKAEFEVHEVYAVDVLVSSGEGKAKDAGQRTTIYKRDPSKQYGLKMKTSRAFFSEVERRFDAMPFTLRAFEDEKKARMGVVECAKHELLQPFNVLYEKEGEFVAQFKFTVLLMPNGPMRITSGPFEPDLYKSEMEVQDAELKALLQSSASRKTQKKKKKKASKTVENATSGETLEENGAGD
B2: DDX24 (protein, UniProt Q9ESV0 1-857)
chain: MKVKETNSKPKLASRGTFQRKGIKIVGKWKQVTIDPNLFADGQMDDLVCFEELTDYRLVKNPSRLFSSEETKKRKAQAVSEEEEEEEGQSSSPKKKIKLKKQRDAARAAEGAAAQNEYEVKASEPEAQGEVTACSDQKVGGAKSESLAQAAPRKKKNKGKKKLDTFQSTSPKLPKKSKKTWMAEVHDQKADVSAWRDLFVPKAVLRALSFLGFSAPTPIQALTLAPAIRDKLDILGAAETGSGKTLAFAIPMIHSVLQWHKMKAPPIPRSTGMPPREMRFGATAHLGSPCKDRTESGVLPEEARIETEAQPSDSGVQATPETSASASAQTLLVCDDDAGEGPSSLEEKPVPKQNEDGEEKFDAEQAGKLKQELCDQIAIYKVHPRRPLLGLVLTPTRELAIQVRQHIDAVAKFTGINTAILVGGMSTQKQQRMLNRHPEIVIATPGRLWELVKEKHPHLSNLRQLRCLVIDEADRMVEKGHFAELSQLLEMLNDSQYNPSRQTLVFSATLTLVHQAPARILHKKHVKKMDKTDKLDLLMQKVGMRGKPKVIDLTRNEGTVETLTETKIHCETDEKDLYLYYFLMQYPGRSLVFANSISCIKRLSGLLKVLDVMPLTLHACMHQKQRLRNLEQFARLQDCVLLATDVAARGLDIPKVQHVIHYQVPRTSEIYIHRSGRTARAASEGLSLMLIGPEDVINFKKIYKTLQKDEDIPLFPVQSKYMDVVKERIRLARQIEKAEYRNFQACLHNSWIEQAAAALEIELEEEMYKGGKADQQEERRRQKQMKMLKQELRHLLSQPLFQENLKTRYPTQSGRPPQPVLASRNIESALSCLSRQKRRRKKPKEPRAPPQPGSSTS
B3: PUS71 (protein, UniProt Q8CE46 1-702)
chain: MAEDTDGGIRFNSLCFINDHVGFQGSIKTSPSDFIVIEIDEQGQLVSKATDGSLYEISKIQSEPSNSVKKPKLNIQNVSLEHKNSEGAADLPGCSDGDRSHQSDSEKENSVNSVTSKCEEESVDLLRSLLDEKTHTSLGQFACDIKRMWNSQTELTEPSPELSLGKILDKNRRAVLHSAVRQAFPFLITVGNQGEVVVKPNRECKELCRLVSEEEALGFFKYLDAKKENSKFTFKPDPNKDHRKAVHHFLNKKFGNLVETKSFPGQHHSAGNPDSAITVRFREKARGKRSHPEGCERGKAVYTAFTLQKENLETFEAIGLLAVKLGVIPSDFSYAGLKDKRAITYQSMVVKKVTPERLKSIKEEIEKKRMNVFNIRSVGDCLRLGQLKGNHFEIIIRHLRNQLNDSANLTERILEAIENVKNKGFVNYYGPQRFGKGQKIQTDQIGLALLKNEMVKAIKLFLTPEDVDDPVNKAKQYFLRTEDAKGTLSLMPEFRVRERALLESLHRFGVTEEGCVRAWFSFPHSMRIFYIHAYSSRIWNEAASYRLAAYGPKVVEGDLICSDEDADKHFPSSKVHLVTKEEESAHTYALHQVVLPVLGYNVQYPENQVGRWYQEALSRDGLQACRFRVPALKLNVPGCYRHIVKHPRNVSHRLVHPDPATEEARVEGPHSDDTASSLSLSFDLDASCYATVCLREMMKGDI
B4: SHQ1 (protein, UniProt Q7TMX5 1-569)
chain: MLTPAFELTQDCDFLTVAIRVPHARASEFDVYFEGVDFKFYAKPYFLRLTLPGRIVENGSEQGTYDADKGIFTIRLPKETPGQHFEGLNMLTALLAPRKSRSAKPLVEEIGASGVAEEGADDEDEEFDWEIEQTPYEEVSESTLQSQCHYGFGNLRAGVVQRLQDELSEVIDIKDPDFTPVTERRQKRLAAELAKFDPDHYLADFFEDEAVEQILKYSPWWNDAHAEMVASLGKNQEQGDSAALVSFSEEEKYQLRKFVNKSYLLDKTAHRQVYYGLVDILLAYCYEVRVTEGEHSVESAWTIRKLSPTLCWFETWTDVHEILVSFGRRVLCYPLYRHFKLVLKAYRDTIKILQLGKSAVLKCLLDVHKVFQENDPAYILNDLYISDYCVWIQKAKSKKLAALTEALKAVSLSKAQLGLELPELEAAALLVQEEEGAGRAAQCNPSHQAPHSSPEPSDSDSTSSSGTEDSASEQEEPAGTQPSLLTSLQAPLLEEDSALIIRESGLCRNMASQGCEVSQGQPLASARAPLIEELGDALKMLRVSTPHGVSAGSHGSVEDAEERGQVPCD
B5: TMOD3 (protein, UniProt Q9JHJ0 1-352)
chain: MALPFRKDLGDYKDLDEDELLGKLSESELKQLETVLDDLDPENALLPAGFRQKNQTSKSATGPFDRERLLSYLEKQALEHKDRDDYVPYTGEKKGKIFIPKQKPAQTLTEETISLDPELEEALTSASDTELCDLAAILGMHNLIADTPFCDVLGSSNGVNQERFPNVVKGEKILPVFDEPPNPTNVEESLKRIRENDARLVEVNLNNIKNIPIPTLKDFAKTLEANTHVKHFSLAATRSNDPVAVAFADMLKVNKTLKSLNMESNFITGAGVLALIDALRDNETLMELKIDNQRQQLGTSVELEMAKMLEENTNILKFGYQFTQQGPRTRAANAITKNNDLVRKRRIEGDHQ
B6: TMOD2 (protein, UniProt Q9JKK7 1-351)
chain: MALPFQKGLEKYKNIDEDELLGKLSEEELKQLENVLDDLDPESATLPAGFRQKDQTQKAATGPFDREHLLMYLEKEALEQKDREDFVPFTGEKKGRVFIPKEKPVETRKEEKVTLDPELEEALASASDTELYDLAAVLGVHNLLNNPKFDEETTNGEGRKGPVRNVVKGEKAKPVFEEPPNPTNVEASLQQMKANDPSLQEVNLNNIKNIPIPTLKEFAKSLETNTHVKKFSLAATRSNDPVALAFAEMLKVNKTLKSLNVESNFITGTGILALVEALRENDTLTEIKIDNQRQQLGTAVEMEIAQMLEENSRILKFGYQFTKQGPRTRVAAAITKNNDLVRKKRVEGDRR
B7: SLC26A11 (protein, UniProt Q80ZD3 1-593)
chain: MAPDTCCCSATALRRRLPVLAWVPDYSLQWLRLDFIAGLSVGLTVIPQALAYAEVAGLPPQYGLYSAFMGCFVYFFLGTSRDVTLGPTAIMSLLVSFYTFREPAYAVLLAFLSGCIQLAMGLLHLGFLLDFISCPVIKGFTSAASITIGFGQIKNLLGLQKIPRQFFLQVYHTFLHIGETRVGDAVLGLASMLLLLVLKCMREHMPPPHPEMPLAVKFSRGLVWTVTTARNALVVSSAALIAYAFEVTGSHPFVLTGKIAEGLPPVRIPPFSVTRDNKTISFSEMVQDMGAGLAVVPLMGLLESIAVAKSFASQNNYRIDANQELLAIGLTNVLGSLVSSYPVTGSFGRTAVNAQTGVCTPAGGLVTGALVLLSLNYLTSLFSYIPKSALAAVIITAVTPLFDVKIFRSLWRVQRLDLLPLCVTFLLSFWEIQYGILAGSLVSLLILLHSVARPKTQVSEGQIFVLQPASGLYFPAIDALREAITNRALEASPPRSAVLECTHISSVDYTVIVGLGELLEDFQKKGVALAFVGLQVPVLRTLLAADLKGFRYFTTLEEAEKFLQQEPGTEPNSIHEDAVPEQRSSLLKSPSGP

Each molecule was assayed against T1, HA-tagged SLC38A9 (mouse) (assay: affinity purification with mass spectrometry; C2C12 cells transfected 48 h with HA-tagged SLC38A9 or empty pCMV-HA; anti-HA-Tag (3724) immunoprecipitation from lysate, 10% SDS-PAGE, Coomassie, differential bands cut, LC-MS/MS).

Molecule	binding
TUBA1B (from UniProt P05213 1-451)	binds
HSPA41 (from UniProt P48722 1-838)	binds
EXOC8 (from UniProt Q6PGF7 1-716)	binds
AKT1S1 (from UniProt Q9D1F4 1-257)	binds
GM10073 (mouse (endogenous in C2C12))	binds
EIF2AK4 (from UniProt Q9QZ05 1-1648)	binds
GM17430 (mouse (endogenous in C2C12))	binds
B1	binds
B2	binds
B3	binds
B4	binds
B5	binds
B6	binds
B7	binds
